Data taken from patent US7696233B2, “Method for controlling particular insect pests by applying anthranilamide compounds” (E. I. du Pont de Nemours and Company, priority 2001, dated 2010).
Some of these results come from one statement about several compounds together.

How the values were obtained:
Format in all cases: in vivo
[1] = test system: fall armyworm (Spodoptera frugiperda); assay: Test A: control of fall armyworm, foliar spray on corn; settings: sprayed at 50 ppm, visually assessed after 6 days
[2] = test system: tobacco budworm (Heliothis virescens); assay: Test B: control of tobacco budworm, foliar spray on cotton; settings: sprayed at 50 ppm, visually rated after 6 days
[3] = test system: beet armyworm (Spodoptera exigua); assay: Test C: control of beet armyworm, foliar spray on corn; settings: sprayed at 50 ppm, visually rated after 6 days

Measured: feeding damage (excellent levels of plant protection)

Cc1cc(Br)c(NC(=O)c2cc(C(F)(F)F)nn2-c2ncccc2Cl)c(C(=O)NC(C)C)c1 [Compound 526]
≤ 10%: all assays above

Cc1cc(Br)c(NC(=O)c2cc(C(F)(F)F)nn2-c2ncccc2Cl)c(C(=O)NC(C)(C)C)c1 [Compound 527]
≤ 10%: all assays above

CCNC(=O)c1cc(C)cc(Br)c1NC(=O)c1cc(C(F)(F)F)nn1-c1ncccc1Cl [Compound 528]
≤ 10%: all assays above

CNC(=O)c1cc(C)cc(Br)c1NC(=O)c1cc(C(F)(F)F)nn1-c1ncccc1Cl [Compound 529]
≤ 10%: all assays above

Cc1cc(Cl)cc(C(=O)NC(C)(C)C)c1NC(=O)c1cc(Br)nn1-c1ncccc1Cl [Compound 532]
≤ 10%: all assays above

CNC(=O)c1cc(Br)cc(Br)c1NC(=O)c1cc(Br)nn1-c1ncccc1Cl [Compound 534]
≤ 10%: all assays above

CC(C)NC(=O)c1cc(Cl)cc(Cl)c1NC(=O)c1cc(Br)nn1-c1ncccc1Cl [Compound 536]
≤ 10%: all assays above

CNC(=O)c1cc(Cl)cc(Cl)c1NC(=O)c1cc(Br)nn1-c1ncccc1Cl [Compound 537]
≤ 10%: all assays above

CC(C)NC(=O)c1cc(Br)cc(Cl)c1NC(=O)c1cc(C(F)(F)F)nn1-c1ncccc1Cl [Compound 539]
≤ 10%: all assays above

CC(C)(C)NC(=O)c1cc(Br)cc(Cl)c1NC(=O)c1cc(C(F)(F)F)nn1-c1ncccc1Cl [Compound 540]
≤ 10%: all assays above

CNC(=O)c1cc(Br)cc(Cl)c1NC(=O)c1cc(C(F)(F)F)nn1-c1ncccc1Cl [Compound 541]
≤ 10%: all assays above

Cc1cc(Cl)cc(C(=O)NC(C)(C)C)c1NC(=O)c1cc(Cl)nn1-c1ncccc1Cl [Compound 545]
≤ 10%: all assays above

Cc1cc(Br)cc(C(=O)NC(C)C)c1NC(=O)c1cc(Cl)nn1-c1ncccc1Cl [Compound 546]
≤ 10%: all assays above

CNC(=O)c1cc(Br)cc(C)c1NC(=O)c1cc(Cl)nn1-c1ncccc1Cl [Compound 547]
≤ 10%: all assays above

Cc1cc(Br)cc(C(=O)NC(C)(C)C)c1NC(=O)c1cc(Br)nn1-c1ncccc1Cl [Compound 548]
≤ 10%: all assays above

CNC(=O)c1cc(I)cc(C)c1NC(=O)c1cc(C(F)(F)F)nn1-c1ncccc1Cl [Compound 549]
≤ 10%: all assays above
